Reference: patent publication US20180214514A1
No constants are given. Whether binding was seen depends on the method and setting. Some entries that bind do so weakly or less than the wild type.

Amino acid sequences for entries named in this document (tags omitted). A change or cut given only in a name is not applied to a line headed by its entry. Residues count along the entry.
UniProt P09038, residues 134-288: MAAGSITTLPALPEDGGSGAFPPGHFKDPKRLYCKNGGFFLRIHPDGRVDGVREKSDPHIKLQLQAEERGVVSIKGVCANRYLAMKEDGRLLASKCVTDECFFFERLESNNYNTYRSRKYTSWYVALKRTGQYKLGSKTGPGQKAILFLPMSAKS
UniProt Q8TAT2: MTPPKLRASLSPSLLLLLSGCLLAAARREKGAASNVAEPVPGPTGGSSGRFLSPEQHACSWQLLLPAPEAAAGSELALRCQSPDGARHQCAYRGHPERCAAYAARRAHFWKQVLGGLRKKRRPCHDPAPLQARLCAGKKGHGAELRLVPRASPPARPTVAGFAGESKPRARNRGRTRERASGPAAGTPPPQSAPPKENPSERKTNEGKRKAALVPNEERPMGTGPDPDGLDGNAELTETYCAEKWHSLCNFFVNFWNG

Biological target: human recombinant FGF2 (human) (UniProt P09038)
Assay: SPR, C66 over immobilized FGF2 (FIG. 7B)

binding: binds
Substance: MBP-tagged C66 fusion protein (C-terminal 66-amino acid FGF-binding domain of human BP3) (from UniProt Q8TAT2 193-258)
